According to publication PMC12265967:
These are yes or no findings as the source states them, for the method shown. In cells and extracts the contact can be indirect. Some results given as binding are weak or reduced against the parent protein; the word gives no strength. Where a sequence is shown, tags or fusion partners need not be part of it.

Amino acid sequences for entries named in this document (tags omitted). Residues count along the entry.
UniProt P06756, residues 31-1048: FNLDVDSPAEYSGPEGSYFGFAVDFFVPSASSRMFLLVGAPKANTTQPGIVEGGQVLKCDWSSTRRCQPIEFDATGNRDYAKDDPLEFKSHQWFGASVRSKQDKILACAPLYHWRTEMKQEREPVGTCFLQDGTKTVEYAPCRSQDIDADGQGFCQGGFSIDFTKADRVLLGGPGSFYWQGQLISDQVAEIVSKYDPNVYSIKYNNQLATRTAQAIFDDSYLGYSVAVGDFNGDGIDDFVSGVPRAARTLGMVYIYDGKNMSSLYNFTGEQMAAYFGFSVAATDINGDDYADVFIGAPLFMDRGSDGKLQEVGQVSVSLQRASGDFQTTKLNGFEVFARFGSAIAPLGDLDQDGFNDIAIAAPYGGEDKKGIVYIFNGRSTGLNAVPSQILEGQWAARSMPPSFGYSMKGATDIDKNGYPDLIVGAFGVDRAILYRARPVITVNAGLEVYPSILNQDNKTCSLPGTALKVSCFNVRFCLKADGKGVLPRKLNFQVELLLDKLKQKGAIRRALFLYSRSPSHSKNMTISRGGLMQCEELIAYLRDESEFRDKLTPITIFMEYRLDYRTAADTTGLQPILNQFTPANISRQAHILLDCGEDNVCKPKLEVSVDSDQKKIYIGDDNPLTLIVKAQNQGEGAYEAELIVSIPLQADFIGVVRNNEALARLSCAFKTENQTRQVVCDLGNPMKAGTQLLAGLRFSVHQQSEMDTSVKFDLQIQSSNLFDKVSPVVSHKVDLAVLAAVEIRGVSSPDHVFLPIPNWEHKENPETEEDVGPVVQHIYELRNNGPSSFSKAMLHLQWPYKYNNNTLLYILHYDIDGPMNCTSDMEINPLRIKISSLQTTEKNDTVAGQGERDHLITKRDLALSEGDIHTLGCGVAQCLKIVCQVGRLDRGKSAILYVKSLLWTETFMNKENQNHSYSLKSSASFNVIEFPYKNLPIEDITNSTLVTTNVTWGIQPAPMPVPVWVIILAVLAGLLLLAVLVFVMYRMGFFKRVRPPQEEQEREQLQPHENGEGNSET
UniProt P17948, residues 27-1338: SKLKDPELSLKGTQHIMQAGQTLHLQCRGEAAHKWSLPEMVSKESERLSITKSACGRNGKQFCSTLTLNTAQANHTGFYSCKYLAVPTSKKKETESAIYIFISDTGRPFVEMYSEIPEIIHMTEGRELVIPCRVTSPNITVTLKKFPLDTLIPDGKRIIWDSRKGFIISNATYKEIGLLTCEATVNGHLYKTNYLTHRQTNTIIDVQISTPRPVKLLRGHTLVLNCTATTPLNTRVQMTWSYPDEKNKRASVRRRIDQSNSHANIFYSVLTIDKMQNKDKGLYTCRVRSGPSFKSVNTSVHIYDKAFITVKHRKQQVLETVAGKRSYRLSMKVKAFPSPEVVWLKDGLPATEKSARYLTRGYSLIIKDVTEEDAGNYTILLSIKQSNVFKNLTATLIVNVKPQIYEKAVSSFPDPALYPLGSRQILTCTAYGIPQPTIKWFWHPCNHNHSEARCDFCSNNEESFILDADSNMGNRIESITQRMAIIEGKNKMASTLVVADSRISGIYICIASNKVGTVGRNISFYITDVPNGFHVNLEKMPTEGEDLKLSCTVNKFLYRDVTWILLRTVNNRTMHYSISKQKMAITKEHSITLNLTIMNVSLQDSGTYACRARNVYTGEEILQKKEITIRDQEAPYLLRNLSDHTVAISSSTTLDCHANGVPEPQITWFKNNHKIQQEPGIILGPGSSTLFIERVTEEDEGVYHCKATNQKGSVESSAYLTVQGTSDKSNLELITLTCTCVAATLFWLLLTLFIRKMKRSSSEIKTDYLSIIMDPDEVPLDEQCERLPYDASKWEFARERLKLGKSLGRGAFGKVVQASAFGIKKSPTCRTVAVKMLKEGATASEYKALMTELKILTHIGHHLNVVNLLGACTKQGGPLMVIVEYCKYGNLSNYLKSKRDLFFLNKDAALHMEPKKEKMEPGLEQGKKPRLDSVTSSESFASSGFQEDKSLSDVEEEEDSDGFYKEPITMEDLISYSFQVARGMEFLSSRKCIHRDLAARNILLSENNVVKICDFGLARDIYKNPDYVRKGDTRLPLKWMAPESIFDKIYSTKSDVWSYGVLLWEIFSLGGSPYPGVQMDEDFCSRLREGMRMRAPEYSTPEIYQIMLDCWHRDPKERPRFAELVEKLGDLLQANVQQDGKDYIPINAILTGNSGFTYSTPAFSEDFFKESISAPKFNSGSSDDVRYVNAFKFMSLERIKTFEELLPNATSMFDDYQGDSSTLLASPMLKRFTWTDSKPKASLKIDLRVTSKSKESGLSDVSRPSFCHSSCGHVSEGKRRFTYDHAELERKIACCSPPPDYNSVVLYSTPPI

Experiments:
His-VEGF-B186 [1] = target: His-VEGF-B186 (UniProt P49765); experiment: cross-linking; sulfo-SBED-labeled VEGF-B186 (2 ug in 1 mL HEPES buffer) on confluent HUVECs or TeloHAECs at 4°C for 1 h, UV 312 nm at room temperature, 200 mM DTT, lysis; biotin label transfer read by immunoblot and by LC-MS/MS of membrane areas; only the target purified
His-VEGF-B186 [2] = target: His-VEGF-B186 (UniProt P49765); experiment: pull-down; HUVECs treated with 5 ug His-VEGF-B186 or 1% BSA for 1 h at 4°C, lysed (Pierce IP Lysis Buffer), Ni-NTA magnetic beads 2 h at 4°C, immunoblot; only the target purified
VEGF-B186-Fc = VEGF-B186-Fc (UniProt P49765); experiment: pull-down; HUVECs (siFLT1-treated) given 5 ug VEGF-B186-Fc or 1% BSA for 1 h at 4°C, lysed, protein A/G magnetic beads 2 h at 4°C, immunoblot; only the target purified

Row | Substance | binding (His-VEGF-B186 [1]) | binding (His-VEGF-B186 [2]) | binding (VEGF-B186-Fc)
1 | CD51 (encoded by integrin alpha-V [ITGAV]) (from UniProt P06756 31-1048) (receptor) | binds | binds | binds
2 | vascular endothelial growth factor receptor 1 (VEGFR1) (from UniProt P17948 27-1338) | – | – | binds
